# The other results are listed elsewhere or left out. Small differences around the control level are noise.
# Sequences of proteins named here, by UniProt entry; tags and fusion partners are left off. A change or cut given only in a name is not applied to a line headed by its entry.
# UniProt O75083: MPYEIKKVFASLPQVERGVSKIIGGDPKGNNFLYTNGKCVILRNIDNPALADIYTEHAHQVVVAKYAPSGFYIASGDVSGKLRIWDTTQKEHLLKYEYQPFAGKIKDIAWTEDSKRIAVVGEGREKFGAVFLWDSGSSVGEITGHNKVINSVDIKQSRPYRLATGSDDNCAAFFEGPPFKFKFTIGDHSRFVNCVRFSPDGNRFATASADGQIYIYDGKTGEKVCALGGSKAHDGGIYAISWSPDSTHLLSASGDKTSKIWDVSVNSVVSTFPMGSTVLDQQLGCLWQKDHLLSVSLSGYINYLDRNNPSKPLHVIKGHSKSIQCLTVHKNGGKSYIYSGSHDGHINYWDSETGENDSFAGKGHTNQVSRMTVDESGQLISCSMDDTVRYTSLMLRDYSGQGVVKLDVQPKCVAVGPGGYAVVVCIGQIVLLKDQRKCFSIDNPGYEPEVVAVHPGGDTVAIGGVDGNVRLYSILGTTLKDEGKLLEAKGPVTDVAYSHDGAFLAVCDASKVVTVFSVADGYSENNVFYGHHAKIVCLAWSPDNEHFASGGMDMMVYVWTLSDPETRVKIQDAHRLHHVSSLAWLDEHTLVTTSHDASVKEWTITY
# UniProt O43166: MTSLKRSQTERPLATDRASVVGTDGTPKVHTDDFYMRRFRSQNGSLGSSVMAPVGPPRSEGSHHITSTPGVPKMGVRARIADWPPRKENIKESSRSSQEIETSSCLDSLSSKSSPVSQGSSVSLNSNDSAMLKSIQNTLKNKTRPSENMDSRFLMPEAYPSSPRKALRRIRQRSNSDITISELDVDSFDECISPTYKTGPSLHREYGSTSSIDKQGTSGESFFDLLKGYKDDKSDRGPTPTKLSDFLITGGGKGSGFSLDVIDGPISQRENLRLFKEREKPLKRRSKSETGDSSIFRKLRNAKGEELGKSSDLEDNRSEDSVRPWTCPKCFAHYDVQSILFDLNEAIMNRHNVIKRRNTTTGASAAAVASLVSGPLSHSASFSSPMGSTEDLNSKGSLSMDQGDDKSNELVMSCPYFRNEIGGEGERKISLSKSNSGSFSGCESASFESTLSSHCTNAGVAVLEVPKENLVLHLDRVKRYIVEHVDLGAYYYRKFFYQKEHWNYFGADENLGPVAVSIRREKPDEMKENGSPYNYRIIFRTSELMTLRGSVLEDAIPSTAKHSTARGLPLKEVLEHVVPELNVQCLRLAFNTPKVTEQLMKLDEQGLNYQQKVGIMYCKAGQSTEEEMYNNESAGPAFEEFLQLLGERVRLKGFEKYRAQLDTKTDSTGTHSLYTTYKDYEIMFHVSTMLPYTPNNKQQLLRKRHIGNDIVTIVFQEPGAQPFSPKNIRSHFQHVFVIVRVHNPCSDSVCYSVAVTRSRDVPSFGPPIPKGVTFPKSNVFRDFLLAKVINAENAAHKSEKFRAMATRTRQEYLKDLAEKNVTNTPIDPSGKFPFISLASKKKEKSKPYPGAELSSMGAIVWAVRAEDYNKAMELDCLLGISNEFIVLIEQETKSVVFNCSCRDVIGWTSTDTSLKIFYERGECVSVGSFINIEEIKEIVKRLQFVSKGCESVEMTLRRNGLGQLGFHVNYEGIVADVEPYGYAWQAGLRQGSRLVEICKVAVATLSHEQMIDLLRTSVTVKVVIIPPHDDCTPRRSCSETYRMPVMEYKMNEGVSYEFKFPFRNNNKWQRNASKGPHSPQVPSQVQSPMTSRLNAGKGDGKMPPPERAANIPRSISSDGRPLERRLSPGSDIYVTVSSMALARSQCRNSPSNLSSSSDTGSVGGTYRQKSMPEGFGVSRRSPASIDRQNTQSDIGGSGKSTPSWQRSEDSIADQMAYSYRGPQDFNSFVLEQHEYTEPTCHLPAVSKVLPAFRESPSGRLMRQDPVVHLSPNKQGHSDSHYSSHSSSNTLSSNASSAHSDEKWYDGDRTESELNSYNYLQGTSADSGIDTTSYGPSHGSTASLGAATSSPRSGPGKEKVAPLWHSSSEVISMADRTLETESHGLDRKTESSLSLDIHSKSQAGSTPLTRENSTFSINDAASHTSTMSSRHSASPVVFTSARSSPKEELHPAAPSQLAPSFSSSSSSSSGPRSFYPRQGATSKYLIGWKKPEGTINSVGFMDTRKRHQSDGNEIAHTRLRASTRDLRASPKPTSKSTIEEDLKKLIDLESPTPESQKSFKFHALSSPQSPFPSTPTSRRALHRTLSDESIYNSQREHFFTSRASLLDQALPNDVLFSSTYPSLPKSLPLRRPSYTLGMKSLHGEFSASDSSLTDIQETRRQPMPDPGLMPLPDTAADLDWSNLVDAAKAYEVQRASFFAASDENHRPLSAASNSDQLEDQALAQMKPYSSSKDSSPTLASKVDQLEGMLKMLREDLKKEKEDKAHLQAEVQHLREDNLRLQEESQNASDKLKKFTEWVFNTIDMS
# UniProt O75367, whole entry: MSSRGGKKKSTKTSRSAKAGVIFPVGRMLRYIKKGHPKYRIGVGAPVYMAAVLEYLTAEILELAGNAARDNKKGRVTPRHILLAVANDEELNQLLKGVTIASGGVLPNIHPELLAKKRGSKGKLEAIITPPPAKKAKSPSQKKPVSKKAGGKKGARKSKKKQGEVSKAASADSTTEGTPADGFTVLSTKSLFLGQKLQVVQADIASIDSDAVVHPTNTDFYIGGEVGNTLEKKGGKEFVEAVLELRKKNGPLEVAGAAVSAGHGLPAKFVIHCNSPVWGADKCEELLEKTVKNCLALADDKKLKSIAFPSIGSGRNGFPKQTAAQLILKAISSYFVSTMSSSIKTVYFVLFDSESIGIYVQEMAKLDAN
# UniProt O60506: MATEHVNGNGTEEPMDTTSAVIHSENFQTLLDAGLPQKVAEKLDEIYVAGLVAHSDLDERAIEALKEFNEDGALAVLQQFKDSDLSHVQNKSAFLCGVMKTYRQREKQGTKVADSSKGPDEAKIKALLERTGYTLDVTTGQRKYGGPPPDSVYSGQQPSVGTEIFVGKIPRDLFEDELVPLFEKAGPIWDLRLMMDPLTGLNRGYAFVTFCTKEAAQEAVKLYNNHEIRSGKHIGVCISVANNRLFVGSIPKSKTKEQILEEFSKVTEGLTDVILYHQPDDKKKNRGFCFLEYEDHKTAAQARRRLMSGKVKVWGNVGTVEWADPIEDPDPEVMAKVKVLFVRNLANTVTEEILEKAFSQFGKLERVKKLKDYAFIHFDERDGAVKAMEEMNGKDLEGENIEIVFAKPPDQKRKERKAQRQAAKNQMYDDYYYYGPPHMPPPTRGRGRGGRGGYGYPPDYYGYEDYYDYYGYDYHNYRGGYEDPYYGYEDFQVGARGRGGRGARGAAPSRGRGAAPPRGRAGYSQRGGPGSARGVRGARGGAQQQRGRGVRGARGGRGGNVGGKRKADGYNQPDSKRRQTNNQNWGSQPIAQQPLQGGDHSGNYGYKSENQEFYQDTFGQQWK
# UniProt O60825: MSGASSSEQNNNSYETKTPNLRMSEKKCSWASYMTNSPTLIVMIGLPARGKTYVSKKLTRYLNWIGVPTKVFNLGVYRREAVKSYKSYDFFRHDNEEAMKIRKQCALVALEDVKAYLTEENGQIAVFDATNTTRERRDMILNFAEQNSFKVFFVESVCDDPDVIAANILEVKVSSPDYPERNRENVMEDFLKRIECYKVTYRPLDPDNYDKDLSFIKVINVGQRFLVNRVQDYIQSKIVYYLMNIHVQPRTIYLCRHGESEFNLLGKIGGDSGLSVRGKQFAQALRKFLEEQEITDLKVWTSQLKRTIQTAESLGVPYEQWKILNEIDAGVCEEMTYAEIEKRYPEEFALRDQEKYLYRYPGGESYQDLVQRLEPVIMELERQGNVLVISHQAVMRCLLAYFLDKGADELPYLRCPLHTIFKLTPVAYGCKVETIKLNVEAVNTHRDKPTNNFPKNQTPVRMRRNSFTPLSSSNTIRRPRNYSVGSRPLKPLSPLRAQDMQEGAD
# UniProt O43251: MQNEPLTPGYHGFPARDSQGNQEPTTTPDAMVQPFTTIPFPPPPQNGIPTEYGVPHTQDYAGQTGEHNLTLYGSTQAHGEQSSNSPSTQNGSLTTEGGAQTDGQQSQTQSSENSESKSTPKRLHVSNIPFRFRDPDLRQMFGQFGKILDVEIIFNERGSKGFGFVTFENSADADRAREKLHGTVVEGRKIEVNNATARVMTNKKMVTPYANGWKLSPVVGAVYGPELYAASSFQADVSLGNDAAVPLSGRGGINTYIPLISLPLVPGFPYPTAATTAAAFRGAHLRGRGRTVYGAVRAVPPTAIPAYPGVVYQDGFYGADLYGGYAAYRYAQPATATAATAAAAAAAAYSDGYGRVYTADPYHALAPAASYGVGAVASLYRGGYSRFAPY
# UniProt O75251, whole entry: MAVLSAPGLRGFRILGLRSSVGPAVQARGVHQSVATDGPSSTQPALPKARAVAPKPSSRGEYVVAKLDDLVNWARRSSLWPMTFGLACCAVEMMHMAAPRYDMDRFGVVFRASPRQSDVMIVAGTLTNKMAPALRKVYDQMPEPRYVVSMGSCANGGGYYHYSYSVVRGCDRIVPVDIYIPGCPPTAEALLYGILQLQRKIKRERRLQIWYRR
# UniProt O43768: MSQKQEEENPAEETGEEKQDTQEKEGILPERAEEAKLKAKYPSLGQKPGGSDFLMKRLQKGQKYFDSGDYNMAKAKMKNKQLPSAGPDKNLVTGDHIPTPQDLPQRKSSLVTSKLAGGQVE
# UniProt O43837: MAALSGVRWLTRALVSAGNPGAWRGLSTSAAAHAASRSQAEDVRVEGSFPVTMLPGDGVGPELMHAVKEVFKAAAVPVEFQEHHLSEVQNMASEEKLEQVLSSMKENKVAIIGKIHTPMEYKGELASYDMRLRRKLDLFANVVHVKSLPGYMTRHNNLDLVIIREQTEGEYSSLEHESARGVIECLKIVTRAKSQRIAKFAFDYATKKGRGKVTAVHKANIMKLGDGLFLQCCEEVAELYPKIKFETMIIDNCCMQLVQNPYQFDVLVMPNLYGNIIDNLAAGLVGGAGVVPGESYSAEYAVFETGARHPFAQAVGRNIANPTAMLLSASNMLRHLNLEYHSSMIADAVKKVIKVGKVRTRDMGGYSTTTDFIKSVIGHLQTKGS
# UniProt O43264: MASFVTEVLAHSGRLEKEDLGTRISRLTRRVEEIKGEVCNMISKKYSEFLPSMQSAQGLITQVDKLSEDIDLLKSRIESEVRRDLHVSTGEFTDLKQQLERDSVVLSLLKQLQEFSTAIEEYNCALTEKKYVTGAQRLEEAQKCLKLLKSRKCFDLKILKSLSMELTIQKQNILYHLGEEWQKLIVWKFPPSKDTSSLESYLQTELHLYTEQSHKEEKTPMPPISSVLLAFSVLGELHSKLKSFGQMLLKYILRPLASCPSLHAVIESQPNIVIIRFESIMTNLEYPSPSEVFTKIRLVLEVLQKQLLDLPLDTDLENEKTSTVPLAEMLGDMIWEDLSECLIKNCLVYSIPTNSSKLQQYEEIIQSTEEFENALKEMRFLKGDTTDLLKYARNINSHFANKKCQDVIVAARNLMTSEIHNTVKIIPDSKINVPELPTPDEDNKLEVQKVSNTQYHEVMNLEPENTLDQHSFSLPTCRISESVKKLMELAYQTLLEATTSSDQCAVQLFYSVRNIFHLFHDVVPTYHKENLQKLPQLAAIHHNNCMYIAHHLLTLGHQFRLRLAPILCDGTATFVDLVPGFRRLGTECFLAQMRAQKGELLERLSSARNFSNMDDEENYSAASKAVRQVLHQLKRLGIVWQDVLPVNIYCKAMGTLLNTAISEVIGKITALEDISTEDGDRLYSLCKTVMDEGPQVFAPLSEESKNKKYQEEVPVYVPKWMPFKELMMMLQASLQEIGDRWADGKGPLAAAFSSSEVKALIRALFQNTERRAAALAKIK
# UniProt O43290: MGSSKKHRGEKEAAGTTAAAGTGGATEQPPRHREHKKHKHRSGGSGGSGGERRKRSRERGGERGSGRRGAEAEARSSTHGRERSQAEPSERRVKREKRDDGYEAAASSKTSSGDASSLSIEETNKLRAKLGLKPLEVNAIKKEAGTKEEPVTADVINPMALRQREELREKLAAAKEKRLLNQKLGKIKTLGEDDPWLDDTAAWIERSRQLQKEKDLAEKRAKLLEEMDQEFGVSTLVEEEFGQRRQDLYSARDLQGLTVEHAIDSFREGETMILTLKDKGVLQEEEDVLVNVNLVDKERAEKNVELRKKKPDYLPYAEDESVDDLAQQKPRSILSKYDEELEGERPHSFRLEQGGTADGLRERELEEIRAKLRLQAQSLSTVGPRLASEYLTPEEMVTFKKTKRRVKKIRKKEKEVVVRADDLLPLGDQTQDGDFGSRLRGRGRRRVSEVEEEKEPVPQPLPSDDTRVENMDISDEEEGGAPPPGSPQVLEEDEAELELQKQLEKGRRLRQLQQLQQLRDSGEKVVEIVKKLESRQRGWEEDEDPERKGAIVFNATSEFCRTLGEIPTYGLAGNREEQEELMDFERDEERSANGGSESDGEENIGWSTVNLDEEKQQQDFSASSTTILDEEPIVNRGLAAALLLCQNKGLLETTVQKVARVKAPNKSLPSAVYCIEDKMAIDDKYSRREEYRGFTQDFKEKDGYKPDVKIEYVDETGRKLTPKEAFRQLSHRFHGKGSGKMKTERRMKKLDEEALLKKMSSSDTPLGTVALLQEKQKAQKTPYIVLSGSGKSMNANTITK
# Compound: Cc1nc(Nc2ncc(C(=O)Nc3c(C)cccc3Cl)s2)cc(N2CCN(CCO)CC2)n1 [dasatinib]
# Assay: log2 fold change of tryptic peptide abundance, ligand vs vehicle (limited proteolysis) (log2 ratio); higher = more trypsin-susceptible (destabilized)
# Settings: ligand concentration: 5 uM; sample: K562 cleared lysate
row,Target,log2 fold change
1,"KIN (peptide sequence: FIEEQVRR, peptide start residue: 172) (UniProt O60870)",-0.863
2,"OPHN1 (peptide sequence: TLTMTPMEQKPGAK, peptide start residue: 297) (UniProt O60890)",0.73
3,"WDR1 (peptide sequence: YEYQPFAGK, peptide start residue: 96) (UniProt O75083)",-0.209
4,"MGRN1 (peptide sequence: AASIENVLQDSSPEHCGR, peptide start residue: 513) (UniProt O60291)",-0.0796
5,"SIPA1L1 (peptide sequence: QNTQSDIGGSGK, peptide start residue: 1188) (UniProt O43166)",-1.26
6,"H2AFY (peptide sequence: KGHPKYR, peptide start residue: 34) (UniProt O75367)",-0.364
7,"SYNCRIP (peptide sequence: DYAFIHFDER, peptide start residue: 372) (UniProt O60506)",0.144
8,"PFKFB2 (peptide sequence: YLNWIGVPTK, peptide start residue: 61) (UniProt O60825)",-0.153
9,"EPB41L2 (peptide sequence: RIVITGDGDIDHDQALAQAIR, peptide start residue: 957) (UniProt O43491)",0.403
10,"PEX1 (peptide sequence: KLHSYGR, peptide start residue: 198) (UniProt O43933)",0.546
11,"UniProt O75143 (peptide sequence: INLAFMSTR, peptide start residue: 191)",0.427
12,"RBFOX2 (peptide sequence: MVTPYANGWK, peptide start residue: 205) (UniProt O43251)",-0.0445
13,"NDUFS7 (peptide sequence: KVYDQMPEPR, peptide start residue: 136) (UniProt O75251)",0.077
14,"UniProt O43865 (peptide sequence: TPELTWER, peptide start residue: 411)",0.199
15,"SORBS3 (peptide sequence: GDIVYIHK, peptide start residue: 404) (UniProt O60504)",-0.14
16,"ENSA (peptide sequence: AKYPSLGQKPGGSDFLMK, peptide start residue: 39) (UniProt O43768)",0.0416
17,"TIMM8A (peptide sequence: SKPVFSESLSD, peptide start residue: 87) (UniProt O60220)",0.0192
18,"UniProt O75323 (peptide sequence: SDMLLSRK, peptide start residue: 158)",0.884
19,"IDH3B (peptide sequence: FAFDYATKK, peptide start residue: 200) (UniProt O43837)",0.127
20,"CTNND1 (peptide sequence: HAIPNLVK, peptide start residue: 750) (UniProt O60716)",-0.111
21,"RNMT (peptide sequence: KEFEDDLVK, peptide start residue: 60) (UniProt O43148)",0.385
22,"ACSL4 (peptide sequence: VGAPLICCEIK, peptide start residue: 488) (UniProt O60488)",0.564
23,"TBCA (peptide sequence: VMYEKEAK, peptide start residue: 24) (UniProt O75347)",-0.0797
24,"RAD1 (peptide sequence: IILQSEGLR, peptide start residue: 156) (UniProt O60671)",0.0876
25,"BUB1 (peptide sequence: TEFQLGSK, peptide start residue: 778) (UniProt O43683)",-0.309
26,"BCL2L11 (peptide sequence: QPSDVSSECDREGR, peptide start residue: 4) (UniProt O43521)",0.326
27,"ZW10 (peptide sequence: VEEIKGEVCNMISK, peptide start residue: 31) (UniProt O43264)",0.416
28,"SART1 (peptide sequence: EKDLAEKR, peptide start residue: 213) (UniProt O43290)",-0.342
29,"PIP5K1C (peptide sequence: KAAPTEVLSMTAQPGPGHGK, peptide start residue: 37) (UniProt O60331)",-0.166

# From entry 10 up to 11, as listed above:
row,Target,log2 fold change
10,"PEX1 (peptide sequence: KLHSYGR, peptide start residue: 198) (UniProt O43933)",0.546
11,"UniProt O75143 (peptide sequence: INLAFMSTR, peptide start residue: 191)",0.427

# From the supplement of paper PMC12819154, “High-throughput peptide-centric local stability assay extends protein–ligand identification to membrane proteins, tissues and bacteria” (Nature Structural & Molecular Biology, 2025)
